{
  "source": "paper doi:10.1101/2020.06.17.158394",
  "about": "(bioRxiv, 2020)",
  "biological_target": "T1, KaiC-CI domain from T. elongatus (T. elongatus) (UniProt Q79V60)",
  "T1 sequence": "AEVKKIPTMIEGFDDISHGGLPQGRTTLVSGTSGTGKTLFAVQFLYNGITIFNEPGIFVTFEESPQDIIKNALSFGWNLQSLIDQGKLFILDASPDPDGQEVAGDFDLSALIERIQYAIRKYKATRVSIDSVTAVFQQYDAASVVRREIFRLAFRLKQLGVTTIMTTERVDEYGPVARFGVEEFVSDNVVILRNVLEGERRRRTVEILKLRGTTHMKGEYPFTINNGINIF",
  "assay": "crystal structure",
  "note": "Results are given in words; binding and its absence hold for the method and conditions named. Some results given as binding are weak or reduced against the parent protein; the word gives no strength.",
  "data": [
    {"binder": "SasAtrx domain (crystallised with KaiC-CI from T. elongatus) (domain or fragment, UniProt Q8DMT2 17-107) LSLLLFVANRPGDEEETAAIQAHIQQLPSNFSFELKVVPIGEQPYLLEEYKLVATPALIKVRPEPRQTLAGRKLLQKVDYWWPRWQREVAL", "values": [
      {"measurement": "binding", "result": "binds"}
    ]}
  ]
}
